Data on 61 compounds can be found in PubChem BioAssay AID445 (National Center for Advancing Translational Sciences (NCATS), 2006).

What is called AC50 is the midpoint of the concentration-response curve, whichever way the signal moves.

A short description of the test: IkB Signaling. The note with it: ABC-DLBCL IkBa-CBG/CBR dual luciferase ratio (green luciferase fused to IkBa over red control in OCI-Ly3 lymphoma cells), 4 h. Summed up: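 Curves were fitted separately to fusion (green), unfused (red) and ratio luminescence, then classed by r2, magnitude and activity. Cells: OCI-Ly3, 4 h compound plus doxycycline at 37C; 10 uM MG-132 defined full response.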
Where [1] appears, read: measured here: control luc red channel unless noted.
The mark [2] stands for this setting: measured here: IkB-luc green channel.
Setting [3] is: measured here: control luc red channel.

This is one part of the list. Further columns of the screen follow, without active or inactive calls. Most of these compounds were active or inconclusive in the main read-out, so they are no random draw. Words in brackets tell the shape of the fitted curve; partial curves, single points and poor fits give uncertain potencies.

With `Cc1ccc(Cn2nc(C)c(NC(=O)c3noc4c3CCCCC4)c2C)cc1`, the AC50 under setting [1] is 15.8 µM [falling, partial curve]. Still for that read-out and setting: in the case of `CSc1ccccc1-c1nnc(NC(=O)c2ccc3c(c2)OCCO3)o1` it was 20 µM [falling, partial curve]. As for `CC(COc1ccccc1)N(CCCl)Cc1ccccc1` (centres undefined), under setting [1], the AC50 was 39.8 µM [falling, partial curve, poor fit]. Same read-out and setting: next, `Cc1ccc(-n2nc(C(=O)N3CCN(c4ccccc4F)CC3)c(=O)n(C)c2=O)cc1`: 31.6 µM [falling, single point]; `Nc1ncn([C@@H]2O[C@H](CO)[C@@H](O)[C@H]2O)c(=O)n1`: 12.6 µM [falling, partial curve]. On the same count and under the same terms, next, `CCCCCc1ccc(-c2ccc(Br)cc2)nc1`: 10 µM [falling, partial curve]. Regarding `Clc1ccccc1CSc1nnc(-c2ccccn2)n1Cc1ccco1`, the AC50 under setting [1] was 10 µM [falling, partial curve]. Consider `Cc1cc(Br)ccc1NC(=O)CSc1c2c(nc3ccccc13)CCC2`, for which the AC50 under setting [1] was 12.6 µM [falling, partial curve]. On to `CCOc1ccc(CNC(=O)CCc2c(C)nn(-c3ccc(N4CCCCC4)nn3)c2C)cc1`, for which, under setting [1], the AC50 is 31.6 µM [falling, single point]. On the same count and under the same terms, in the case of `CCCCC(CC)CNC(=O)Cc1ccc(-n2c(=O)[nH]c3ccccc3c2=O)cc1` (centres undefined) it was 15.8 µM [falling, single point]; in that of `CCCCC12CN3CC(C)(CN(C1)C3c1c[nH]c3ccccc13)C2=O` (centres undefined), 25.1 µM [falling, single point]; in that of `Cc1cc(C)n(-c2ccc(C(=O)Nc3ccccn3)cc2)n1`, 15.8 µM [falling, partial curve]. Take `CCCn1c(CCC(=O)O)ccc1-c1cccs1`: the AC50 reads like this: under setting [2], 25.1 µM [rising, single point]; under setting [3], 39.8 µM [falling, single point]. Turning to `COc1ccc(N2CCN(S(=O)(=O)c3ccc(-c4coc(C)n4)cc3)CC2)cc1`, the AC50 under setting [1] is 3.16 µM [falling, partial curve, poor fit]. Still for that read-out and setting: in the case of `O=C1CC(N2CCC(O)(c3ccc(Cl)cc3)CC2)C(=O)N1Cc1ccc(N2CCCC2=O)cc1` (centres undefined) it was 12.6 µM [falling, partial curve]; in that of `Cc1c(CCNC(=O)c2ccc(C(C)(C)C)cc2)sc2nc(-c3ccc(F)cc3)nn12`, 3.98 µM [falling, partial curve]; in that of `CCc1cc2c(cc3c(=O)n(CCCC(=O)NCc4cccc(Br)c4)ncn32)s1`, 6.31 µM [falling, partial curve]. Still for that read-out and setting: in the case of `Cc1cc(Nc2ccc(F)cc2F)nc(-n2nc(C)cc2C)n1` it was 39.8 µM [falling, single point]. On the same count and under the same terms, next, `CC1CCCN(c2nc3c(c(=O)[nH]c(=O)n3C)n2CCCc2ccccc2)C1` (centres undefined): 15.8 µM [falling, partial curve]; `COc1ccc2cc(CCNC(=O)c3ccc4c(c3)OCO4)c(=O)[nH]c2c1`: 15.8 µM [falling, partial curve]; `CNS(=O)(=O)c1cn(CC(=O)N2CCN(c3ccc(C(C)=O)cc3)CC2)cc1S(=O)(=O)NC`: 39.8 µM [rising, partial curve, poor fit].

For the compound `CC(=O)N1CCN(c2ccccc2NC(=O)COc2cc(C)ccc2C(C)C)CC1`, the AC50 under setting [1] is 12.6 µM [falling, partial curve].

As to `O=C(CSc1nc(=O)n(CCN2CCOCC2)c2c1CCC2)Nc1ccc(Cl)c(Cl)c1`, under setting [1], the AC50 is 3.16 µM [falling, partial curve, poor fit]. `Cc1ccc2nc(SCc3nc(-c4ccc(Cl)cc4)no3)[nH]c2c1`: under setting [1], the AC50 was 31.6 µM [falling, single point]. On the same count and under the same terms, next, `CC(=O)Nc1ccccc1-c1nc2ccccc2n(CC(=O)Nc2cccc(C)c2C)c1=O`: 39.8 µM [falling, single point].

Take `CCOC(=O)c1cc(-c2ccccc2)n(CCC(=O)Nc2ccccc2CC)c1C`: the AC50 under setting [1] was 39.8 µM [rising, partial curve]. On the same count and under the same terms, next, `Cc1cc(C)cc(N2C(=O)CSC23C(=O)N(Cc2c(F)cccc2Cl)c2ccccc23)c1` (centres undefined): 7.94 µM [falling, partial curve]; `Cc1cccc2nc(-c3ccccn3)c(Nc3ccc(F)cc3)n12`: 31.6 µM [falling, partial curve]; `CCCCOc1ccc(CSc2ncn[nH]2)cc1`: 12.6 µM [falling, partial curve]. As for `CC(=O)c1sc(NC(=O)c2ccccc2F)nc1C`, under setting [1], the AC50 is 12.6 µM [falling, partial curve]. On the same count and under the same terms, in the case of `CC(C)(C)OC(=O)N1CCC(c2c(C(=O)NCCc3ccsc3)cnn2-c2ccc(F)cc2F)CC1` it was 20 µM [falling, partial curve]; in that of `CCOC(=O)c1c(Nc2ccc(OCC)cc2)nnc(-c2ccccc2)c1-c1ccccc1`, 10 µM [falling, partial curve]. Regarding `CC(C)c1cnc2c(c1SCC(=O)c1ccc(Cl)cc1)c(=O)n(C)c(=O)n2C`, the AC50 under setting [1] is 31.6 µM [falling, partial curve].

For the compound `COc1ccc(Cl)cc1NC(=O)CN1CCC(n2nnc3cc(F)ccc32)CC1`, the AC50 reads like this: under setting [2], 25.1 µM [rising, partial curve]; under setting [3], 25.1 µM [rising, partial curve]. With `Cc1cc(-c2ccccc2)nc2cc(C(=O)Nc3ccc(Cl)c(Cl)c3)nn12`, under setting [1], the AC50 was 3.16 µM [falling, full curve, poor fit].

With `CCOc1ccc(NCc2cccn2-c2nnc(N3CCC(C(=O)NCCc4ccc(OCC)c(OCC)c4)CC3)s2)cc1`, the AC50 under setting [1] is 39.8 µM [falling, single point]. Regarding `COc1ccc(C(=O)N2CC=C(c3ccccc3)CC2)cc1S(=O)(=O)N1CCOCC1`, the AC50 under setting [1] was 25.1 µM [falling, single point]. With `CCOC(=O)c1[nH]c2c(c1C)C(=O)CC(c1ccco1)C2` (centres undefined), the AC50 reads like this: under setting [2], 0.794 µM [rising, full curve]; under setting [3], 0.398 µM [rising, full curve].

Take `COc1ccccc1-c1noc(CCC(=O)Nc2cccc(C(F)(F)F)c2)n1`: the AC50 under setting [1] was 25.1 µM [falling, partial curve]. For `Cc1cccc(NC(=O)C(=O)NCC(c2cccnc2)N2CCN(Cc3ccccc3)CC2)c1` (centres undefined), under setting [1], the AC50 was 39.8 µM [falling, single point]. For `COc1ccc(OC)c(NC(=O)C(Cc2ccccc2)NS(=O)(=O)c2ccc3c(c2)CCC(=O)N3)c1` (centres undefined), the AC50 under setting [1] was 31.6 µM [falling, single point]. As for `CCn1cc2nc(SCc3c(F)cccc3Cl)n(CCc3ccccc3)c(=O)c2n1`, under setting [1], the AC50 is 25.1 µM [falling, partial curve].

As to `CCN(CC)S(=O)(=O)c1ccc2c(c1)N(CC(=O)Nc1cccc(C(C)=O)c1)C(=O)CO2`, the AC50 under setting [1] is 10 µM [falling, partial curve]. The same measure, in the same setting: in the case of `O=C(Nc1ccc(Br)cc1)Nc1nc2c(s1)CCCCCC2` it was 0.0501 µM [rising, full curve, poor fit]; in that of `COc1ccc(Cl)cc1S(=O)(=O)Nc1ccc2c(c1)n(C)c(=O)n2C`, 20 µM [rising, partial curve] [measured here: IkB-luc green channel]; in that of `Cc1cccc(N2CCN(C(=O)c3ccc(N4CCCC4=O)cc3)CC2C)c1` (centres undefined), 12.6 µM [falling, partial curve]. `C#CCOc1c(Br)cc(C2C(C(=O)OC)=C(C)NC3=C2C(=O)c2ccccc23)cc1OCC` (centres undefined): the AC50 under setting [1] is 10 µM [falling, partial curve]. `COc1cc(OC)c(NC(=O)c2nn(C)c3c2COc2ccccc2-3)cc1Cl`: under setting [1], the AC50 was 39.8 µM [falling, single point]. With `CN1C(=O)CSc2ccc(NC(=O)N3CCN(c4ccccn4)CC3)cc21`, the AC50 under setting [1] was 25.1 µM [falling, partial curve]. On to `Cc1cccc(C(=O)Nc2nnc(S(=O)(=O)N3CCOCC3)s2)c1`, for which the AC50 under setting [1] is 31.6 µM [falling, partial curve, poor fit]. As to `Cc1ccc(-c2nnc(Nc3cccc(Br)c3)c3ccccc23)cc1S(=O)(=O)N1CCN(C)CC1`, under setting [1], the AC50 was 7.94 µM [falling, full curve]. On the same count and under the same terms, next, `O=C(CSc1c2c(nc3ccc(Cl)cc13)CCCC2)N1CCN(c2ccc(Cl)cc2)CC1`: 3.16 µM [falling, partial curve]; `CCOc1ccc(OC(=O)c2sc3ncn(Cc4cccc(F)c4)c(=O)c3c2C)cc1`: 39.8 µM [falling, single point].

In the case of `CSc1ccc(CCNS(=O)(=O)c2cc(-c3cc(C)no3)ccc2C)cc1`, under setting [1], the AC50 is 25.1 µM [falling, partial curve]. As to `Cc1[nH]c2ccccc2c1C1(O)C(=O)N(Cc2ccccc2)c2ccc(Br)cc21` (centres undefined), under setting [1], the concentration at half-maximal activity (AC50) is 39.8 µM [falling, single point]. On the same count and under the same terms, in the case of `COc1ccccc1CNc1ncnc2onc(-c3ccc(Cl)cc3)c12` it was 39.8 µM [falling, single point]; in that of `Cc1nc2ccccc2c2oc(C(=O)NCc3ccc4c(c3)OCO4)cc12`, 3.98 µM [falling, full curve]; in that of `CCCS(=O)(=O)NCCc1sc2nc(-c3ccc(Cl)cc3)nn2c1C`, 5.01 µM [rising, partial curve].

On to `O=C(c1ccco1)N1CCN(C(=O)C2CCCc3c2[nH]c2ccc(Cl)cc32)CC1` (centres undefined), for which the AC50 under setting [1] was 31.6 µM [falling, single point]. Same read-out and setting: in the case of `CCOC(=O)c1c(NC(=O)c2cc(=O)c3c(C)cc(C)cc3o2)sc(C)c1C` it was 12.6 µM [falling, partial curve]. On to `COc1ccc(-n2nc3c(N4CCCC(C(=O)NCc5ccccc5C)C4)nnc(C)c3c2C)cc1` (centres undefined), for which the AC50 under setting [1] is 12.6 µM [falling, partial curve].
